Publication doi:10.1101/2022.08.02.502465
pKd: −log10 of the molar value. Construct, isoform or probe ends are uncertain for at least one entry.

Chains of the proteins cited; added tags and fusions are not shown. Lines headed by an entry give the natural chain unless they say otherwise; changes in a name come on top.
UniProt P00582: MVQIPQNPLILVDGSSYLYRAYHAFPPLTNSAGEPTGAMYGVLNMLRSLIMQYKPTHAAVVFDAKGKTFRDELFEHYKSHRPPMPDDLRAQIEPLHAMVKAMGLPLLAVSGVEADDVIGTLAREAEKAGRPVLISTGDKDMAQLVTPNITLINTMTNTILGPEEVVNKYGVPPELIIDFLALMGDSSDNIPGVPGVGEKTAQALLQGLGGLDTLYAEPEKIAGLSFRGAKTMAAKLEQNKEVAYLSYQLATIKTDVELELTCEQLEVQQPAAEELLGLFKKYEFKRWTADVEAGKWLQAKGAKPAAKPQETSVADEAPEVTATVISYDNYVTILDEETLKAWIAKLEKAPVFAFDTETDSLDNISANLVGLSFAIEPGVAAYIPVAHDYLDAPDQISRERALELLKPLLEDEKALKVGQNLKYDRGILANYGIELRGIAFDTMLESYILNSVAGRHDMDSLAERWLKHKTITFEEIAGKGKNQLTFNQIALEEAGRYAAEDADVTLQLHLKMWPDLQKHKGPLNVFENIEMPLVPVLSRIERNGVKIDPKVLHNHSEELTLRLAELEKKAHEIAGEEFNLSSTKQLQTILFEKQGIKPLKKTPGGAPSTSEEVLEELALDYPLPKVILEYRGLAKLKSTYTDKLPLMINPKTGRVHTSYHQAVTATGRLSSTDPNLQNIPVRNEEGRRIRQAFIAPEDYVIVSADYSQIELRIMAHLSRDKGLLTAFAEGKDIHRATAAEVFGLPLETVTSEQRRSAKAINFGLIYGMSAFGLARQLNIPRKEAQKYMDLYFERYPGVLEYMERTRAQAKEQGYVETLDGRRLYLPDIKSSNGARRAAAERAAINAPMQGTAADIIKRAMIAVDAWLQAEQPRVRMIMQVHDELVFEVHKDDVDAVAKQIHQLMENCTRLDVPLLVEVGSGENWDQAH

Biological target: DNA polymerase I (Pol I) (Escherichia coli) (UniProt P00582)
Assay: BLI
Conditions: 5 mM Mg2+; residues 1-928

## CGCTCACTGGCCGTCGTTTTACAACGTCGTGACTGGGAAAACCCTGGCGTTACC / GGTAACGCCAGGGTTTTCCCAGTC / ACGACGTTGTAAAACGACGGCCAGTGAGCG [nicked BLI substrate]
  pKd: 7.92
